# Reference: PubChem BioAssay AID651558 (National Center for Advancing Translational Sciences (NCATS), 2012)
# Out of some 1,200 compounds screened, about 480 (40%) were called active. Inconclusive results, whose numbers are uncertain, are shown with a selection of clear calls. The call rests on the fitted dose curve; in most records, active means well fitted inhibition curve with a large enough effect; inconclusive means small, poorly fitted or top-dose-only effect; inactive means no such curve, though single readings can be large or run the other way. Potencies of inconclusive entries are doubtful fits and often do not repeat.
# Assay: qHTS Assay to Find Inhibitors of Chronic Active B-Cell Receptor Signaling: Hit Validation in Primary Screen; further: nearly all actives have a fitted effect of over 75% in size
# Conditions: ABC-DLBCL IkB-luc/CBR ratio luminescence, 4 h; series mostly up to 46.1 µM
# Text: Diffuse large B-cell lymphoma (DLBCL) is the most common category of non-Hodgkin lymphoma, with ~20,000 new cases per year in the United States. DLBCL should be regarded as a collection of different neoplasms. Microarray gene expression analysis has defined two principal types of DLBCL, named for their similarity to normal B cell stages or activation states: a germinal center B-cell (GCB) type, and an activated B-cell (ABC) type. In ABC-DLBCL, a constitutive high-level activity of the NF-kappaB family of transcription factors has been observed (1) and NF-kappaB target genes are more highly expressed in ABC primary tumors than in GCB tumors. Functional studies have shown a constitutive high-level activity of the IkappaB (inhibitor of kappa-B) kinase (IKK) complex. […] Further analysis of DLBCL primary tumors for NF-kappaB target gene expression imply that although CARD11 is required for constitutive IKK activity in all ABC-DLBCL lines, mutations in CARD11 may be the root cause of IKK activation only in lines or tumors with such mutations. In other words, CARD11 mutations may explain NF-kappaB activation in only 10% of ABC-DLBCL cases. […] This process has been termed 'chronic active BCR signaling' (CABS). The goal of this screen is to find small-molecule inhibitors of the CABS pathway found in ABC-DLBCL lines using a cell-based assay that measures IkappaBalpa stability, which has already been extensively validated in the OCI-Ly3 line (PubChem AID:445; REF: 4). […] A cell-sensor assay for I-kappa-B-alpha stabilization has been developed. The assay uses green (CBG68) and red (CBR) emitting beetle luciferases [Chroma-GloTM developed by Promega Corp.] where the green luciferase is fused to IkappaBalpha and the red luciferase is present in its native state. Both luciferase genes are stably present in the TMD8 human ABC DLBCL cell line, but their expression is under the control of tetracycline-inducible promoters. Following the addition of doxycycline to induce expression of the luciferases, the green luminescence in control cultures rises only slowly because the CBG fusion partner IkappaBalpha is targeted by IKK activity for rapid degradation. In contrast, green luminescence rises rapidly in the presence of proteasome inhibitors or IKK inhibitors. The rise in red luminescence of CBR is not affected by proteasome or IKK inhibitors, and serves as normalization for cell number and nonspecific effects. Compounds were screened as a concentration-titration series that ranged from 46 uM to 3 nM. NIH Molecular Libraries Probe Production Network [MLPCN] NIH Chemical Genomics Center [NCGC] MLPCN Grant: R03 DA031086 PI Name: Dr. R. Eric Davis
# Cells were seeded in 1536-well plates at 5000 cells/4uL in IMDM medium containing 0.5% FBS, w/o phenol red, 1% penicillin/streptomycin. Then, 23 nL of compounds or DMSO were delivered to each well using a pin tool. One uL 20ng/ml doxycycline was then dispensed into white solid 1536-well plates and the plates were incubated at 37C/5% C02 in a cell incubator for 4 hrs. Then 4 uL luminescent substrate mix (in-house prepared: 150 mM Tris-Cl, pH 7.6, 3 mM MgCl2, 1% Triton X-100, 5 mM DTT, 0.2 mM CoA, 0.15 mM ATP, 5 mM D-luciferin, final concentrations) was added to each well. The plate was incubated at r.t. for 10-15 min. The plates were measured on a ViewLux plate reader for green luminescence (540/20 nm filter) and red luminescence (618/8 nm filter). The green and red luminescent signals were corrected for red and green luminescence filter overlap using previously determined filter calibration constants (determined using the procedure outlined in the Promega Technical Manual; REF 4). The %Activity was determined from the ratio of corrected green/red luminescent values. MG132 were used as control. Green luminescent and ratio %Activity was determined by normalizing to the difference in signal between basal cells (0% Activity) and cells incubated with 10 uM of the proteasome inhibitor MG-132 (100% Activity). […]
# Potency means the concentration at half of the fitted maximal effect.
row,SMILES,Potency
1,CCOC(=O)c1c(C)n(C)c2ccc(OC)c(NC(=O)CN3CCN(C(=O)c4ccco4)CC3)c12,"inconclusive: 16.4 µM [inhibitor, partial curve, poor fit]"
2,C=CCc1ccc(OCCOc2ccc(/C=N/n3cnnc3)cc2OCC)c(OC)c1,"inconclusive: 8.2 µM [inhibitor, partial curve]"
3,Cc1c(CCC(=O)N[C@@H](CC(C)C)C(=O)O)c(=O)oc2cc3oc4c(c3cc12)CCCC4,"inconclusive: 8.2 µM [inhibitor, partial curve, poor fit]"
4,CNc1nc2c(N)ncnc2n1[C@H]1O[C@@H](CO)[C@H](O)[C@@H]1O,"inconclusive: 1.64 µM [inhibitor, full curve]"
5,CCN1C(=O)C(O)(C2COC(C)(C)CC2=O)c2cc(Br)ccc21 (stereo not given),active: 18.4 µM
6,Cc1nc(NC(=O)c2cnccn2)ccc1Br,"inconclusive: 0.411 µM [inhibitor, full curve]"
7,CC(=O)[C@H]1CC[C@H]2[C@@H]3CCC4=CC(=O)CC[C@]4(C)[C@H]3CC[C@]12C,inactive
8,Cn1c(O)c(N=NC(=S)Nc2ccccc2F)c2cc(S(=O)(=O)N3CCOCC3)ccc21,"inconclusive: 11.6 µM [inhibitor, partial curve]"
9,Cc1ccc(CCC(=O)Nc2ncc(Cc3cc(Cl)ccc3Cl)s2)o1,active: 1.3 µM
10,COc1ccc(NC(=O)CSc2nc(N)c(C(=O)Nc3ccc(N(C)C)cc3)s2)cc1,inactive
11,CNC(=S)N/N=C/c1ccc(N2CCOCC2)s1,"inconclusive: 2.06 µM [inhibitor, partial curve]"
12,COC(=O)C1CC23C=CCN4CCC5(c6ccccc6NC15C2C)C43 (stereo not given),"inconclusive: 2.59 µM [inhibitor, full curve]"
13,COc1cccc(-c2cc(=O)c3cc(NC(=O)c4ccc(N(C)C)cc4)ccc3[nH]2)c1,"inconclusive: 0.82 µM [inhibitor, full curve]"
14,Cc1cccc(Cn2cc(/C=C/[N+](=O)[O-])c3ccccc32)c1,"inconclusive: 16.4 µM [inhibitor, single point]"
15,CCN(CC(=O)Nc1cc(Cl)ccc1C)C(=O)C1CC1,inactive
16,COc1ccc2c(c1)c(/C=N/Nc1nc3ccccc3[nH]1)c(C)n2C,"inconclusive: 32.6 µM [inhibitor, single point]"
17,Cn1cccc1/C=C1\SC(=Nc2ccc(O)cc2)NC1=O,active: 1.03 µM
18,COc1c(Br)cc(Br)cc1/C=N/NC(=O)c1cccnc1,"inconclusive: 9.2 µM [inhibitor, partial curve]"
19,CCOC(=O)C1=C(C)NC(C)=C(C(=O)OCC)C1/C=C/c1ccccc1,"inconclusive: 5.17 µM [inhibitor, partial curve]"
20,CN1CCN(C(c2ccccn2)c2cc(Cl)c3cccnc3c2O)CC1 (stereo not given),"inconclusive: 8.2 µM [inhibitor, partial curve]"
21,COc1ccc(/C=N/NC(=O)c2[nH]c3ccc(C)cc3c2-c2ccccc2)c(C(=O)O)c1OC,inactive
22,Oc1ccc(-c2nnc(Nc3cccc(O)c3)c3ccccc23)cc1,"inconclusive: 2.91 µM [inhibitor, full curve]"
23,O=C(O)c1ccc(CSc2nnc(-c3ccco3)o2)cc1,"inconclusive: 16.4 µM [inhibitor, partial curve, poor fit]"
24,CCOC(=O)c1[nH]c(C)c(C(=O)N2CCc3ccccc32)c1C,active: 4.61 µM

row,SMILES,Potency
1,CCOC(=O)c1[nH]c2c(c1C)C(=O)CC(c1ccc(F)cc1)C2 (stereo not given),"inconclusive: 4.61 µM [inhibitor, full curve]"
2,CCCCOc1ccccc1NC(=O)Cn1c(-c2nonc2N)nc2ccccc21,"inconclusive: 1.64 µM [inhibitor, full curve]"
3,COCCn1nnnc1C(C(C)C)N(Cc1ccccc1)Cc1cc2cc(OC)ccc2[nH]c1=O (stereo not given),"inconclusive: 8.2 µM [inhibitor, partial curve]"
4,COC(=O)C1=C(C)NC(C)=C(C(=O)OC)C1c1ccc(N(C)C)cc1,"inconclusive: 20.6 µM [inhibitor, partial curve]"
5,COc1cc(OC)cc(C(=O)NCC(=O)N2CC=C(c3ccccc3)CC2)c1,"inconclusive: 9.2 µM [inhibitor, partial curve]"
6,COc1cc2c(cc1OC)C1=CC(=O)C(=O)N1C(C)(C)C2,"inconclusive: 9.2 µM [inhibitor, partial curve]"
7,CCCCC1C(=O)CC[C@H]2[C@@H]1CC(=O)[C@@H]2C/C=C\CCCC(=O)O (stereo not given in full),"inconclusive: 1.64 µM [inhibitor, full curve]"
8,CCCC(=O)Nc1ccc2c(c1)nc(CN1CCN(C(=O)OCC)CC1)n2CC,"inconclusive: 18.4 µM [inhibitor, single point]"
9,CCOc1ccc(NCc2ccccc2OCc2cccc(F)c2)cc1,inactive
10,CCN(CC)S(=O)(=O)c1ccc(N/N=C(\C)c2ccc(OC)cc2O)nc1,inactive
11,Cc1ccc(C2OCC3(CO)COC(c4ccc(C)cc4)N23)cc1 (stereo not given),inactive
12,CCc1ccccc1NC(=S)N=Nc1c(O)n(C)c2ccc(S(=O)(=O)N3CCOCC3)cc12,inactive
13,COc1cc2c(cc1OC)-c1cc(Nc3ccccc3)nc(=O)n1CC2,active: 18.4 µM
14,O=C(OCC(O)CO)c1ccccc1Nc1ccnc2cc(Cl)ccc12 (stereo not given),active: 20.6 µM
15,Fc1ccc(/C=N/NC2=Nc3cccc4cccc2c34)cc1,"inconclusive: 25.9 µM [inhibitor, partial curve, poor fit]"
16,CC(=O)N1CC(=O)N=C1SCC(=O)Nc1nc(C)c(-c2ccccc2)s1,active: 23.1 µM
17,CCCCC[C@H](O)/C=C/C1=C(CCCCCCC(=O)O)C(=O)CC1,"inconclusive: 8.2 µM [inhibitor, partial curve]"
18,O=C(Nc1nnc(SCc2ccc(F)cc2)s1)c1ccccn1,inactive
19,Cc1cccc(OCCCN2C(=O)C(=O)c3cc(C)ccc32)c1,inactive
20,CCC(=O)NCc1cc(-c2nn(C)c(=O)c3ccccc23)ccc1OC,"inconclusive: 16.4 µM [inhibitor, partial curve]"
21,CC(=O)Nc1ccc(S(=O)(=O)N2CCSc3ccccc32)cc1,"inconclusive: 16.4 µM [inhibitor, single point]"
22,COc1ccc(C(=O)N2CCc3cc(OC)c(OC)cc3C2c2ccc(OC)c(OC)c2)cc1 (stereo not given),"inconclusive: 3.66 µM [inhibitor, partial curve, poor fit]"
23,N=C1SCC(=O)N1c1ncc(Cc2ccccc2Cl)s1,"inconclusive: 20.6 µM [inhibitor, single point]"
24,CC(/C=C/c1ccccc1)=N\NC(=S)NC(C)C,inactive

# Shown as tab-separated lines: part of the list above
row	SMILES	Potency
4	COC(=O)C1=C(C)NC(C)=C(C(=O)OC)C1c1ccc(N(C)C)cc1	inconclusive: 20.6 µM [inhibitor, partial curve]
5	COc1cc(OC)cc(C(=O)NCC(=O)N2CC=C(c3ccccc3)CC2)c1	inconclusive: 9.2 µM [inhibitor, partial curve]
6	COc1cc2c(cc1OC)C1=CC(=O)C(=O)N1C(C)(C)C2	inconclusive: 9.2 µM [inhibitor, partial curve]
7	CCCCC1C(=O)CC[C@H]2[C@@H]1CC(=O)[C@@H]2C/C=C\CCCC(=O)O (stereo not given in full)	inconclusive: 1.64 µM [inhibitor, full curve]
8	CCCC(=O)Nc1ccc2c(c1)nc(CN1CCN(C(=O)OCC)CC1)n2CC	inconclusive: 18.4 µM [inhibitor, single point]
9	CCOc1ccc(NCc2ccccc2OCc2cccc(F)c2)cc1	inactive
10	CCN(CC)S(=O)(=O)c1ccc(N/N=C(\C)c2ccc(OC)cc2O)nc1	inactive
11	Cc1ccc(C2OCC3(CO)COC(c4ccc(C)cc4)N23)cc1 (stereo not given)	inactive
12	CCc1ccccc1NC(=S)N=Nc1c(O)n(C)c2ccc(S(=O)(=O)N3CCOCC3)cc12	inactive
13	COc1cc2c(cc1OC)-c1cc(Nc3ccccc3)nc(=O)n1CC2	active: 18.4 µM
14	O=C(OCC(O)CO)c1ccccc1Nc1ccnc2cc(Cl)ccc12 (stereo not given)	active: 20.6 µM

# Further results

row,SMILES,Potency
1,COc1ccc(S(=O)(=O)NCc2ccccn2)cc1NC(=O)c1ccccc1C,"inconclusive: 20.6 µM [inhibitor, partial curve]"
2,Oc1ccccc1N=Nc1ccccc1O,inactive
3,Cc1ccc(C2=NN(C(=O)CSc3nc(N)cc(N)n3)C(c3ccco3)C2)cc1 (stereo not given),"inconclusive: 20.6 µM [inhibitor, partial curve]"
4,O=C(c1ccc(Br)cc1)c1cc([N+](=O)[O-])ccc1N1CCCCC1,active: 2.31 µM
5,C=C1C(O)[C@@H]2O[C@]3(CC[C@H](/C=C/C(C)[C@@H]4CC(C)=CC5(O[C@H](C[C@@](C)(O)CO)CCC5O)O4)O3)CC[C@H]2O[C@@H]1C(O)CC(C)[C@H]1OC2(CCCCO2)CCC1C (stereo not given in full),"inconclusive: 2.59 µM [inhibitor, partial curve]"
6,O=C(NN=C1CCCC1)c1n[nH]c2c1CCCC2,"inconclusive: 16.4 µM [inhibitor, partial curve, poor fit]"
7,COc1ccc(C(C)=O)cc1COC(=O)c1ccc(N)c([N+](=O)[O-])c1,"inconclusive: 23.1 µM [inhibitor, partial curve]"
8,Cc1c(CCC(=O)NCCC(=O)O)c(=O)oc2c(C)c3oc4c(c3cc12)CCCC4,"inconclusive: 2.91 µM [inhibitor, partial curve]"
9,CCOC(=O)c1c(C=O)c2sc(C)cc2n1C,inactive
10,Cc1ccc(C(=O)Sc2cccccc2=O)cc1,"inconclusive: 5.17 µM [inhibitor, single point]"
11,O=C1N[C@H]2CC=C[C@H]2Nc2ccccc21,inactive
12,COc1ccc(S(=O)(=O)N2c3ccccc3OCC2C)cc1 (stereo not given),active: 16.4 µM
13,Cc1ccc2c(c1)C(=O)C(=O)N2CC1COc2ccccc2O1 (stereo not given),"inconclusive: 25.9 µM [inhibitor, single point]"
14,COc1ccccc1N1CCN(C(=O)c2cc(=O)c3cc(C)cc(C)c3o2)CC1,active: 1.03 µM
15,Nc1nc(N)c(N=O)c(OCC2CCCCC2)n1,"inconclusive: 3.66 µM [inhibitor, full curve]"
16,CC(C)(C)NNC(=S)Nc1cccc(C(F)(F)F)c1,inactive
17,Cc1c(CCC(=O)N[C@@H](CCCNC(N)=O)C(=O)O)c(=O)oc2cc3oc4c(c3cc12)CCCC4,"inconclusive: 5.17 µM [inhibitor, partial curve]"
18,CC1=NN(C(N)=S)C(=O)C1N=Nc1cccc([N+](=O)[O-])c1 (stereo not given),"inconclusive: 8.2 µM [inhibitor, partial curve]"
19,CC1=NN(C(N)=S)C(=O)C1N=Nc1ccccc1 (stereo not given),inactive
20,CCCCOc1ccccc1C1CC(=O)NC2=C1C(=O)CCC2 (stereo not given),"inconclusive: 16.4 µM [inhibitor, single point]"
21,O=C(Oc1c(CN2CCOCC2)cc(Cl)c2cccnc12)c1ccc(F)cc1,inactive
22,Nc1ncnc2c1ncn2C1OC(COP(=O)(O)O)C(O)C1O (stereo not given),"inconclusive: 20.6 µM [inhibitor, partial curve]"
